Assay: general procedure: solution-phase peptide synthesis; mixed anhydride method
Conditions: late stage modification step

**Q.** For “H-Thr(tBu)-Cys(Acm1-Pro-Pro-Cys-Pro-Ala-Pro-OH”, which step yield is on record?
**A.** The step yield was 93%.

Source: US5041533 (dated 1991)
